Results taken from publication doi:10.1101/2025.11.26.690709.
No constants are given. Whether binding was seen depends on the method and setting. Some binding calls cover weakened binding; strength is not graded here. Where a sequence is shown, tags or fusion partners need not be part of it.

Target: T1, CHIP K30A, recombinant, C-terminal His tag (human), Q9UNE7
T1 chain: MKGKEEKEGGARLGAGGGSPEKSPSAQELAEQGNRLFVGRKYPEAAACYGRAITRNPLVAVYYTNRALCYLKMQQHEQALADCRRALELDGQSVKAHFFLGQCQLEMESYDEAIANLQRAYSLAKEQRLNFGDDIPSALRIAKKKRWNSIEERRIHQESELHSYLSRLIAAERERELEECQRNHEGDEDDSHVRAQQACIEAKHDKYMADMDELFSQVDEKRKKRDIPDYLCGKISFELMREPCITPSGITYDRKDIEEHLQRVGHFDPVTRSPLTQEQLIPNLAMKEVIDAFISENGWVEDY
Assay: mass photometry
Conditions: remark: other sources report otherwise

binding: binds
B1: CHIP K30A, recombinant, C-terminal His tag, Q9UNE7-1 1-303 (protein)
chain: MKGKEEKEGGARLGAGGGSPEKSPSAQELAEQGNRLFVGRKYPEAAACYGRAITRNPLVAVYYTNRALCYLKMQQHEQALADCRRALELDGQSVKAHFFLGQCQLEMESYDEAIANLQRAYSLAKEQRLNFGDDIPSALRIAKKKRWNSIEERRIHQESELHSYLSRLIAAERERELEECQRNHEGDEDDSHVRAQQACIEAKHDKYMADMDELFSQVDEKRKKRDIPDYLCGKISFELMREPCITPSGITYDRKDIEEHLQRVGHFDPVTRSPLTQEQLIPNLAMKEVIDAFISENGWVEDY
